# Laboratory results from patent US20050014682A1 (priority 2003, published 2005).
# At least one structure is not confirmed: it was looked up by name or label, or the drawing left a doubt.
# Assays:
# Akt = test: Cell-free in vitro assay (3T3-L1 adipocyte PM/CYT/LDM fractions), Akt phosphorylation by phospho-Akt immunoblot; format: biochemical; settings: 100 nM wortmannin, PM(+ins) and CYT, 15 min at 37° C.
# glucose uptake = settings: Clark, 1994; cited from earlier work
compound,measurement,setting,value
COC[C@H]1OC(=O)c2coc3c2[C@@]1(C)C1=C(C3=O)[C@@H]2CCC(=O)[C@@]2(C)C[C@H]1OC(C)=O [wortmannin],insulin-stimulated Akt phosphorylation on Thr308 and Ser473,Akt,completely abrogated
same,insulin stimulation of glucose uptake via translocation of Glut4,glucose uptake,completely blocked
